Article PMC11480336
Results are given in words; binding and its absence hold for the method and conditions named. For part of these data: In cells and extracts the contact can be indirect. Some binding calls cover weakened binding; strength is not graded here. For part of these data: Where a sequence is shown, tags or fusion partners need not be part of it. Blank lines part the entries; values can stand above or below the molecule they belong to.

Protein sequences, listed by entry. Tags and fused reporters are not part of them. Lines headed by an entry give the natural chain unless they say otherwise; changes in a name come on top. Residues count along the entry.
UniProt Q61686: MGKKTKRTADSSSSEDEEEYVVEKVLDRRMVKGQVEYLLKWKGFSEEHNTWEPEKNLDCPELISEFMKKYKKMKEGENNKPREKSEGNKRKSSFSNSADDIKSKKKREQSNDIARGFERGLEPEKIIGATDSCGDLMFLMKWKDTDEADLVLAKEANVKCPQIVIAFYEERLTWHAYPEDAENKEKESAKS
UniProt P45973: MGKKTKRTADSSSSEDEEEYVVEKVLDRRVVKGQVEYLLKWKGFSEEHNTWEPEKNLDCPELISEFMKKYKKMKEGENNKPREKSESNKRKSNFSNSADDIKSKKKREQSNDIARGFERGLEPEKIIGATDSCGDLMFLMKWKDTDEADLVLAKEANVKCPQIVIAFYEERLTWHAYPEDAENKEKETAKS
GST-HP1α-D1 (1–78): residues 1-78 of P45973
GST-HP1α-D3 (122–191): residues 122-191 of P45973
UniProt P63279: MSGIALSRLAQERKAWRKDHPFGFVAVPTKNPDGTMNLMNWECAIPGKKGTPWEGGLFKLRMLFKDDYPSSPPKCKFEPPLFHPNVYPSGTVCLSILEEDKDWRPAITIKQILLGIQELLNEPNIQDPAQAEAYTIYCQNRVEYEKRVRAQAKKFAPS

What was measured:
[1] = target: T1, IRTKS in HEK293T cells (human (endogenous in HEK293T)) (UniProt Q9UHR4); assay: co-IP; HEK293T lysate (50 mM Tris-HCl pH 7.5, 150 mM NaCl, 1 mM EDTA, 1 mM DTT, 1% Triton X-100), anti-IRTKS, anti-HP1α or anti-Ubc9 antibody, Protein A/G PLUS-Agarose, 4 °C, immunoblotting; IgG as negative control
T1 sequence: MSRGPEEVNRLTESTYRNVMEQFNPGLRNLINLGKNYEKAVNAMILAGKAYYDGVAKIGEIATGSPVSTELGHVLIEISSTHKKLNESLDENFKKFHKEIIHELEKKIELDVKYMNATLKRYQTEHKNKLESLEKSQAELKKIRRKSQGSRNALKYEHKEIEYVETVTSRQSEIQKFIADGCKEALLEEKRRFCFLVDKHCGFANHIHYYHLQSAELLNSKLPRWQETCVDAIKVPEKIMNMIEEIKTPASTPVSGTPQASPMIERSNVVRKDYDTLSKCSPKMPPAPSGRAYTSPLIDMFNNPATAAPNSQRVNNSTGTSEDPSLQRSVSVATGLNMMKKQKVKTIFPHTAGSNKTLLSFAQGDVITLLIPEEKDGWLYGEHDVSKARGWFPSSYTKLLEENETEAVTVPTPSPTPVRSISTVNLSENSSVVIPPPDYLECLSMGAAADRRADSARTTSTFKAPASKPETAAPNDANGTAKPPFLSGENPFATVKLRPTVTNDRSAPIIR

[2] = target: T2, IRTKS in mouse embryonic fibroblasts (mouse (endogenous in MEFs)) (UniProt Q9DBJ3); assay: co-IP; MEF lysate (50 mM Tris-HCl pH 7.5, 150 mM NaCl, 1 mM EDTA, 1 mM DTT, 1% Triton X-100), anti-IRTKS or anti-HP1α antibody, Protein A/G PLUS-Agarose, 4 °C, immunoblotting; IgG as negative control
T2 sequence: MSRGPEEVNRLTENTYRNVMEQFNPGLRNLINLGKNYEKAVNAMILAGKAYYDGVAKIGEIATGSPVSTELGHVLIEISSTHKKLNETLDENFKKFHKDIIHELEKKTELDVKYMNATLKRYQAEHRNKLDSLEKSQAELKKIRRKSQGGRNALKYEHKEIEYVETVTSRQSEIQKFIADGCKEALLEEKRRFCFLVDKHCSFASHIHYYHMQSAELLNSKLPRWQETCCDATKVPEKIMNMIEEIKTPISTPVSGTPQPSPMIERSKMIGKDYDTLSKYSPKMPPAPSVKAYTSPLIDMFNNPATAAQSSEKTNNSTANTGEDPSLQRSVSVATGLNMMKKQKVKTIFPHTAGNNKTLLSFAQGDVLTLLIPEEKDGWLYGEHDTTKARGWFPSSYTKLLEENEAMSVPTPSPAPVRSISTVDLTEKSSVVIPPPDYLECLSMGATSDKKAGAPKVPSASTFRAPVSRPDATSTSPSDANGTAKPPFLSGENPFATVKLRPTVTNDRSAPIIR

[3] = target: T3, GST-IRTKS (insulin receptor tyrosine kinase substrate, full length) (UniProt Q9UHR4); assay: pull-down; beads coated with GST fusion proteins incubated with His-tagged fusion proteins under rotation at 4 °C, washed with ice-cold PBS, eluted with 2× SDS loading buffer, western blotting; both purified
T3 sequence: T1 sequence

GST-IRTKS-D2 (250–402) = target: T4, GST-IRTKS-D2 (250–402) (UniProt Q9UHR4); assay: as above
T4 sequence: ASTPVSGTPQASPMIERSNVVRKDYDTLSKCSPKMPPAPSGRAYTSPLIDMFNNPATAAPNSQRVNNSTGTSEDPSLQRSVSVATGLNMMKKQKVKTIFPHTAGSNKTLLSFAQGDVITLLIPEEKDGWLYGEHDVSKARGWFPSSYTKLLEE

GST-IRTKS-D3 (403–511) = target: T5, GST-IRTKS-D3 (403–511) (UniProt Q9UHR4); assay: as above
T5 sequence: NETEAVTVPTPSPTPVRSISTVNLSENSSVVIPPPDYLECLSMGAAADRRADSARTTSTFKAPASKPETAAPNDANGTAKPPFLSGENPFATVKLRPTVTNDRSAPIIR

[4] = target: HP1α in mouse embryonic fibroblasts (mouse (endogenous in MEFs)) (UniProt Q61686); assay: co-IP; MEF lysate (50 mM Tris-HCl pH 7.5, 150 mM NaCl, 1 mM EDTA, 1 mM DTT, 1% Triton X-100), anti-IRTKS or anti-HP1α antibody, Protein A/G PLUS-Agarose, 4 °C, immunoblotting; IgG as negative control
[5] = target: HP1α in HEK293T cells (human (endogenous in HEK293T)) (UniProt P45973); assay: co-IP; HEK293T lysate (50 mM Tris-HCl pH 7.5, 150 mM NaCl, 1 mM EDTA, 1 mM DTT, 1% Triton X-100), anti-IRTKS, anti-HP1α or anti-Ubc9 antibody, Protein A/G PLUS-Agarose, 4 °C, immunoblotting; IgG as negative control
[6] = target: Ubc9 in HEK293T cells (human (endogenous in HEK293T)) (UniProt P63279); assay: as above
[7] = target: GST-HP1α (heterochromatin protein 1-alpha, full length) (UniProt P45973); assay: pull-down; beads coated with GST fusion proteins incubated with His-tagged fusion proteins under rotation at 4 °C, washed with ice-cold PBS, eluted with 2× SDS loading buffer, western blotting; both purified
GST-HP1α-D1 (1–78) = GST-HP1α-D1 (1–78) (UniProt P45973); assay: as above
GST-HP1α-D3 (122–191) = GST-HP1α-D3 (122–191) (UniProt P45973); assay: as above

- binding [1]: binds
Molecule: HP1α in HEK293T cells (from UniProt P45973 1-191)

- binding [2]: binds
Molecule: HP1α in mouse embryonic fibroblasts (from UniProt Q61686 1-191)

- binding [3]: binds
- binding (GST-IRTKS-D2 (250–402)): binds
- binding (GST-IRTKS-D3 (403–511)): binds
Molecule: His-HP1α (from UniProt P45973 1-191)

- binding [1]: binds
Molecule: Ubc9 in HEK293T cells (from UniProt P63279 1-158) (enzyme)

- binding [4]: binds
B1: IRTKS in mouse embryonic fibroblasts (protein, UniProt Q9DBJ3 1-514)
chain: T2 sequence

- binding [5]: binds
- binding [6]: binds
B2: IRTKS in HEK293T cells (protein, UniProt Q9UHR4 1-511)
chain: T1 sequence

- binding [7]: binds
- binding (GST-HP1α-D1 (1–78)): binds
- binding (GST-HP1α-D3 (122–191)): binds
B3: His-IRTKS (protein, UniProt Q9UHR4 1-511)
chain: T1 sequence
